{
  "source": "patent US10772896B2",
  "about": "“Process for preparing a dry powder formulation comprising an anticholinergic, a corticosteroid and a beta-adrenergic” (CHIESI FARMACEUTICI S.P.A., priority 2015, dated 2020)",
  "assay": "Uniformity of distribution of the active ingredients in the blend (10 samples, HPLC)",
  "assay_type": "physicochemical",
  "settings": "dry powder formulation of Example 2; mean value ± RSD",
  "experimental": "The uniformity of distribution of the active ingredients was evaluated by withdrawing 10 samples from different parts of the blend and evaluated by HPLC",
  "data": [
    {"smiles": "C[N+]1(C)CCC(OC(=O)C(O)(c2ccccc2)C2CCCC2)C1", "note": "(stereo not shown) [GB, Glycopyrronium bromide]", "values": [
      {"measurement": "Uniformity of distribution", "result": "101.4 (±1.6)"}
    ]}
  ]
}
